Abundance data for 6 substances are collected here from patent publication US9034323B2, “Method for control of post-prandial glucose” (Halozyme, Inc., priority 2008, dated 2015).

A short description of this data set: C-terminal heterogeneity of soluble rHuPH20, endoproteinase Asp-N digestion (Example 8).
[1] abbreviates: C-terminal fragments from Lot HUA0505MA (3D35M cells).
Setting [2] is: C-terminal fragments from Lot HUB0701EB (2B2 cells).

Take “D28c (DAFKLPPMETEEPQI; C-terminal peptide cleaved from soluble rHuPH20 aa 431-445; listed as Homo sapiens)”: the Abundance by setting is: under setting [1], 11.8%; under setting [2], 16.7%.
In the case of “D28f (DAFKLPPMETEE; C-terminal peptide cleaved from soluble rHuPH20 aa 431-442; listed as Homo sapiens)”, the Abundance runs as follows: under setting [1], 0.0%; under setting [2], 0.0%.
With “D28a (DAFKLPPMETEEPQIFY; C-terminal peptide cleaved from soluble rHuPH20 aa 431-447; listed as Homo sapiens)”, the Abundance is, setting by setting: under setting [1], 0.2%; under setting [2], 1.9%.
Taken in the same sequence, the figures for “D28d (DAFKLPPMETEEPQ; C-terminal peptide cleaved from soluble rHuPH20 aa 431-444; listed as Homo sapiens)” were 56.1% and 27.8%.
Taken in the same sequence, the figures for “D28b (DAFKLPPMETEEPQIF; C-terminal peptide cleaved from soluble rHuPH20 aa 431-446; listed as Homo sapiens)” were 18.4% and 46.7%.
“D28e (DAFKLPPMETEEP; C-terminal peptide cleaved from soluble rHuPH20 aa 431-443; listed as Homo sapiens)”: the Abundance is reported as 13.6% under setting [1] and 6.9% under setting [2].
